This experiment has as its target SctG-sfGFP (Yersinia enterocolitica pilotin SctG fused to sfGFP) (Yersinia enterocolitica) (UniProt Q56851). Briefly: affinity purification with mass spectrometry.

These are yes or no findings as the source states them, for the method shown. Binding seen in cells or lysates may run through a third protein. These calls come from enrichment with a bait or labelling near it, and not all partners need be listed.

For the substance “prokaryotic tubulin homolog FtsZ (from UniProt A0ACH1CEN6)”, the binding result is on record as “binds”.
As to “large export apparatus protein SctV (from UniProt P0C2V3)”, the binding result is listed as “binds”.
In the case of SecF (from UniProt A0ACH1CFQ5) it was “binds”.

These data come from publication doi:10.1101/2022.02.14.480308.
